In paper PMC9642076:
Results are given in words; binding and its absence hold for the method and conditions named. Binding seen in cells or lysates may run through a third protein. A yes stands for co-enrichment or nearness to the bait. Other partners may have been found. Tags and fused reporters may be left off the sequences shown.

Biological target: T1, GFP::RAB-11.1 (C. elegans) (UniProt O01803)
T1 sequence: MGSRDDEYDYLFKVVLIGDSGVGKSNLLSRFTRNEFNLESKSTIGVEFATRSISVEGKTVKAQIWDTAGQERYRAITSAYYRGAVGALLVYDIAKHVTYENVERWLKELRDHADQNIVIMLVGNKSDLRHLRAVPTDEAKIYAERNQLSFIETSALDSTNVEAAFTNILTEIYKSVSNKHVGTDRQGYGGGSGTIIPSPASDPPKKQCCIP
Experiment: affinity purification with mass spectrometry; anti-GFP immunoprecipitation (mouse anti-GFP, Protein G magnetic beads) of GFP::RAB-10 or GFP::RAB-11.1 from late L4 worm extracts in non-denaturing lysis buffer (50 mM Hepes pH 7.4, 150 mM NaCl, 1 mM EDTA, 1% Triton X-100), 4°C; LC-MS/MS; worms on control or hsf-1 RNAi; two biological replicates

binding: binds
B1: nuclear hormone receptor NHR-49 (protein, UniProt O45666 1-501)
chain: MDYFLDASKHIQLNQIDEESSDDFMDLVDPLAEPCAVCGDKSTGTHYGVISCNGCKGFFRRTVLRDQKFTCRFNKRCVIDKNFRCACRYCRFQKCVQVGMKREAIQFERDPVGSPTSGASLNGTPFKKDRSPGYENGNSNGVGSNGMGQENMRTVPQSSSVIDALMEMEARVNQEMCNRYRRSQIFANGSGGSNGNDTDIQQGSDSGASAFAPPNRPCTTEVDLNEISRTTLLLMVEWAKTINPFMDLSMEDKIILLKNYAPQHLILMPAFRSPDTTRVCLFNNTYMTRDNNTDLNGFAAFKTSNITPRVLDEIVWPMRQLQMREQEFVCLKALAFLHPEAKGLSNSSQIMIRDARNRVLKALYAFILDQMPDDAPTRYGNILLLAPALKALTQLLIENMTLTKFFGLAEVDSLLSEFILDDINDHSTAPVSLQQHLSSPTTLPTNGVSPLNPAGSVGSVSSVSGITPTGMLSATLAAPLAIHPLQSQDSILNSEQNNHML
